Source: the supplement of paper PMC7411640
Where a name gives a salt, the structure may show the parent alone. This is one part of the list. This data set is noisy: repeats of one test often differ as much as different tests do.

system: MDA-MB-468; assay: phospho-S6 immunofluorescence (DAPI-normalised), per-plate z-score; higher = higher phospho-S6 signal (less pathway suppression); conditions: compound 1 µM; co-treatment: lapatinib 1 uM; 24 h
Procedure: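 GPCR-targeted compound library (MedChemExpress HY-L006) tested on MDA-MB-468 PTEN-null TNBC cells in 384-well plates at 0.1, 1 or 10 uM, combined with vehicle, GDC0941 450 nM or lapatinib 1 uM, for 24 h. Phospho-S6 (S240/244) immunofluorescence normalised to DAPI and expressed as a per-plate z-score; values are the mean of biological triplicates.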

Row | SMILES | phospho-S6 immunofluorescence (z-score)
1 | CCOC(=O)N[C@@H]1CC[C@@H]2[C@@H](C1)C[C@H]1C(=O)O[C@H](C)[C@H]1[C@H]2/C=C/c1ccc(-c2cccc(F)c2)cn1 [Vorapaxar] | -7.4
2 | CC(C)c1noc(N2CCC(COc3ccc(-c4ccc(S(C)(=O)=O)cc4)nc3)CC2)n1 | -1.13
3 | CC(C)NCC(O)COc1ccc(CCOCC2CC2)cc1 (stereo not drawn) [Betaxolol (hydrochloride)] | -0.42
4 | CC(C)NC[C@H](O)COc1ccc(CCOCC2CC2)cc1 [Levobetaxolol (hydrochloride)] | -1.09
5 | OC(CCN1CCCCC1)(c1ccccc1)C1CCCCC1 (stereo not drawn) [Trihexyphenidyl (hydrochloride)] | -0.67
6 | Clc1cccc(COc2cncc(N3CCNCC3)n2)c1 | 0
7 | Cc1c(C(=O)NN2CCCCC2)nn(-c2ccc(Cl)cc2Cl)c1-c1ccc(Cl)cc1 [Rimonabant (Hydrochloride)] | -1.08
8 | CCOc1ccccc1OCCN[C@H](C)Cc1ccc(OC)c(S(N)(=O)=O)c1 [Tamsulosin] | -0.26
9 | CN(C)CCOC(C)(c1ccccc1)c1ccccn1 (stereo not drawn) [Doxylamine (succinate)] | -0.71
10 | COCCCN1CCC(NC(=O)c2cc(Cl)c(N)c3c2OCC3)CC1 [Prucalopride] | -0.02
11 | Nc1nc(CC(=O)Nc2ccc(CCNC[C@H](O)c3ccccc3)cc2)cs1 [Mirabegron] | 0.03
12 | CCNC(=O)[C@@H]1CCCN1C(=O)[C@H](CCCNC(=N)N)NC(=O)[C@H](CC(C)C)NC(=O)[C@@H](COC(C)(C)C)NC(=O)[C@H](Cc1ccc(O)cc1)NC(=O)[C@H](CO)NC(=O)[C@H](Cc1c[nH]c2ccccc12)NC(=O)[C@H](Cc1cnc[nH]1)NC(=O)[C@@H]1CCC(=O)N1 [Buserelin (Acetate)] | 0.04
13 | CC(=O)Nc1cccc2c1c(Sc1ccc(Cl)cc1)c(C)n2CC(=O)O | -0.5
14 | COc1nc(C)nc(Cl)c1NC1=NCCN1 [Moxonidine] | -0.04
15 | CC(COc1ccccc1)N(CCCl)Cc1ccccc1 (stereo not drawn) [Phenoxybenzamine (hydrochloride)] | 0.82
16 | CC(C)COc1ccc(CNC(=O)N(Cc2ccc(F)cc2)C2CCN(C)CC2)cc1 [Pimavanserin] | -0.49
17 | c1ccc2c(c1)OCC(CN1CCCCC1)O2 (stereo not drawn) [Piperoxan (hydrochloride)] | 0.25

Row | SMILES | phospho-S6 immunofluorescence (z-score)
18 | O=C(O[C@@H]1C[C@@H]2C[C@H]3C[C@H](C1)N2CC3=O)c1c[nH]c2ccccc12 [Dolasetron (Mesylate hydrate)] | 0.3
19 | O=C1NCC2(CCN(CCc3ccccc3)CC2)O1 [Fenspiride (Hydrochloride)] | -0.08
20 | CN(C)CCc1c[nH]c2ccc(C[C@H]3COC(=O)N3)cc12 [Zolmitriptan] | -0.26
21 | Clc1ccc2c(c1)CCc1cccnc1C2=C1CCNCC1 [Desloratadine] | -0.88
22 | COc1cc2c(cc1OC)CN(C(=O)[C@@H](NCc1ccncc1)C(C)(C)C)CC2 | 0.78
23 | CN1CCCC(n2nc(Cc3ccc(Cl)cc3)c3ccccc3c2=O)CC1 (stereo not drawn) [Azelastine (hydrochloride)] | 1.48
24 | CNC(=C[N+](=O)[O-])NCCSCc1csc(CN(C)C)n1 [Nizatidine] | 0.85
25 | CN(C)CCN1C(=O)c2cccc3cc(NC(N)=O)cc(c23)C1=O | 2.62
26 | CN1CCN(C2=Nc3ccccc3Oc3ccc(Cl)cc32)CC1 [Loxapine (succinate)] | 0.44
27 | CCOc1nc2cccc(C(=O)OC(C)OC(=O)OC3CCCCC3)c2n1Cc1ccc(-c2ccccc2-c2nn[nH]n2)cc1 (stereo not drawn) [Candesartan (Cilexetil)] | 0.14
28 | Cc1nc2n(c(=O)c1CCN1CCC(c3noc4cc(F)ccc34)CC1)CCCC2O (stereo not drawn) [Paliperidone] | 0.4
29 | CCNC(=O)[C@H]1O[C@@H](n2cnc3c(N)nc(NCCc4ccc(CCC(=O)O)cc4)nc32)[C@H](O)[C@@H]1O | -0.2
30 | CC(C)(Cc1ccc2ccccc2c1)NC[C@@H](O)COc1cccc(Cl)c1C#N | -5.25
31 | CC(C)(Cc1ccc2ccccc2c1)NC[C@@H](O)COc1cccc(Cl)c1C#N [NPS-2143 (hydrochloride)] | -17.6
32 | CC(C)N(CCCCOCC(=O)NS(C)(=O)=O)c1cnc(-c2ccccc2)c(-c2ccccc2)n1 | -1.06
33 | O=C(O[C@@H]1C[C@@H]2C[C@H]3C[C@H](C1)N2CC3=O)c1c[nH]c2ccccc12 [Dolasetron] | -0.12

Pulled one by one from the list above:
Row | SMILES | phospho-S6 immunofluorescence (z-score)
33 | O=C(O[C@@H]1C[C@@H]2C[C@H]3C[C@H](C1)N2CC3=O)c1c[nH]c2ccccc12 [Dolasetron] | -0.12
24 | CNC(=C[N+](=O)[O-])NCCSCc1csc(CN(C)C)n1 [Nizatidine] | 0.85
